Experimental findings from the supplement of paper PMC12067093, “Discovery and optimisation of a covalent ligand for TRIM25 and its application to targeted protein ubiquitination” (Chemical Science, 2025) are described below.

Amino acid sequences for entries named in this document (tags omitted). A change or cut given only in a name is not applied to a line headed by its entry.
UniProt Q6PCB5: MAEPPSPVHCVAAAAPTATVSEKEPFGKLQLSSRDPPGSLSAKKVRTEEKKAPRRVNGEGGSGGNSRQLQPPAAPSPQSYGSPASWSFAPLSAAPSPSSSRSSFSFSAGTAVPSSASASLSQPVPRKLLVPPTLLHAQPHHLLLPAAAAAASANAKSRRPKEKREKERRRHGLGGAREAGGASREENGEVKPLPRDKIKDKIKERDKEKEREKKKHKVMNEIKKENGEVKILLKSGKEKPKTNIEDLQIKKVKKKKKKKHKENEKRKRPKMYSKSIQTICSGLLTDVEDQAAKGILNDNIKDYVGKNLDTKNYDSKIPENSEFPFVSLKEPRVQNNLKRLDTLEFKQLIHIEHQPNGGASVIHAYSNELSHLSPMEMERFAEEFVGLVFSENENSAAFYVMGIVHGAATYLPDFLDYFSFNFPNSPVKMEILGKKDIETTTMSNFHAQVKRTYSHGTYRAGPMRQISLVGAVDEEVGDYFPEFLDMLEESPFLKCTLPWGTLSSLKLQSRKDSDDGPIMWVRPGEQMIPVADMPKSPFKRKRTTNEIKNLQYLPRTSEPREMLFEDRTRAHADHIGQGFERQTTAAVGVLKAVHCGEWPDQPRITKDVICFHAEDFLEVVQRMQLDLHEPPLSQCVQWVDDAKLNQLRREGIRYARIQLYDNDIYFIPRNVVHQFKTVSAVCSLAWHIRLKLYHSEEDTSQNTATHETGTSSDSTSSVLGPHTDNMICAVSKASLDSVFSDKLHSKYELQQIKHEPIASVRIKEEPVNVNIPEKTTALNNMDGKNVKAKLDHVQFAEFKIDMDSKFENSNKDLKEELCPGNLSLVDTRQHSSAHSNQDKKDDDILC
UniProt Q5VWQ0: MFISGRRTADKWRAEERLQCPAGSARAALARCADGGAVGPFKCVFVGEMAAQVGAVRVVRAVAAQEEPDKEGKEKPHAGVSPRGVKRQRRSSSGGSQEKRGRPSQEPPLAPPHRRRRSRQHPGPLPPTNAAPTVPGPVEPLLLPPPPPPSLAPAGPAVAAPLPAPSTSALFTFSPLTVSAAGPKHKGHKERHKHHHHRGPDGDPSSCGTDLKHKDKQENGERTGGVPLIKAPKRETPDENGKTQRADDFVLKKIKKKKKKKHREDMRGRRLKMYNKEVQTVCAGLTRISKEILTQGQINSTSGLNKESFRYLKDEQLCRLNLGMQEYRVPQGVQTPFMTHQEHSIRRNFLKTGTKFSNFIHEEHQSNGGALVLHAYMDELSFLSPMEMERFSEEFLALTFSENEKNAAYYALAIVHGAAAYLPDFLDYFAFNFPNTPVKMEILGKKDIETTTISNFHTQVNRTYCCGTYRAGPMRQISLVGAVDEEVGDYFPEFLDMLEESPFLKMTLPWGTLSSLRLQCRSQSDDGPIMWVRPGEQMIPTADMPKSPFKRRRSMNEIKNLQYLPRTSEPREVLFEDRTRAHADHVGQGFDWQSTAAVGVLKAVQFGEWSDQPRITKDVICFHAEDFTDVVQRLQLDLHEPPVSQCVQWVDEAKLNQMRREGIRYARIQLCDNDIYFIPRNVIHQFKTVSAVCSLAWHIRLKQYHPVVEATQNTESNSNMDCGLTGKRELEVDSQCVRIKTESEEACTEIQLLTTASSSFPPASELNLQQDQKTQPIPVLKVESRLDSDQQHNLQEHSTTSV
UniProt Q9Y3I0: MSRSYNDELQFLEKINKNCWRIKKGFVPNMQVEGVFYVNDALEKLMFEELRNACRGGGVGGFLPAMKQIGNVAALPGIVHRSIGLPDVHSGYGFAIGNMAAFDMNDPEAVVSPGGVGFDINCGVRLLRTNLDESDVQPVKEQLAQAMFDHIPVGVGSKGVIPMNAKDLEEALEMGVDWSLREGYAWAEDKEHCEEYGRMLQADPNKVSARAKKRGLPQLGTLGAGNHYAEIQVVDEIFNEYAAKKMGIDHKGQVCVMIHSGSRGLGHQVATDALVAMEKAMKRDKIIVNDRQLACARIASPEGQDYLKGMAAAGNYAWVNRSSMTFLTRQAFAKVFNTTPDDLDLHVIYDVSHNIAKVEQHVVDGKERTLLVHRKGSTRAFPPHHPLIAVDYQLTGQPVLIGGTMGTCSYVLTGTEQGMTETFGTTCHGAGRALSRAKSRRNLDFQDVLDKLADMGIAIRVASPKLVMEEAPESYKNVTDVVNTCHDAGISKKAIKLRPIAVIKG
UniProt P26447: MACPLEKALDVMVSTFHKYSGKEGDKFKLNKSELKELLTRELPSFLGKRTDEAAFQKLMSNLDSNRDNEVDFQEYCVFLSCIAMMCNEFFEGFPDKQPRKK
UniProt P19793: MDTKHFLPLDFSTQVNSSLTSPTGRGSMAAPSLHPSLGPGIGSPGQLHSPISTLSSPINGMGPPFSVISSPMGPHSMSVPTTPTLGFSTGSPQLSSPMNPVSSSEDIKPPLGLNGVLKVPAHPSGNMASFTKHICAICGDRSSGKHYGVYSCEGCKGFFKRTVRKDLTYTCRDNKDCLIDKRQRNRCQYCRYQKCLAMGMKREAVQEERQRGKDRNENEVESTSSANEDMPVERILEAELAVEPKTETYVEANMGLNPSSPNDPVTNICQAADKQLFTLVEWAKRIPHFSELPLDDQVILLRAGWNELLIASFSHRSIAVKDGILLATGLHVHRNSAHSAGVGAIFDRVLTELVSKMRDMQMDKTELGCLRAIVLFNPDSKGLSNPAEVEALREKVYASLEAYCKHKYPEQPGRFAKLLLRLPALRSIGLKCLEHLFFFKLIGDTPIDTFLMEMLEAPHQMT
UniProt Q5JTH9: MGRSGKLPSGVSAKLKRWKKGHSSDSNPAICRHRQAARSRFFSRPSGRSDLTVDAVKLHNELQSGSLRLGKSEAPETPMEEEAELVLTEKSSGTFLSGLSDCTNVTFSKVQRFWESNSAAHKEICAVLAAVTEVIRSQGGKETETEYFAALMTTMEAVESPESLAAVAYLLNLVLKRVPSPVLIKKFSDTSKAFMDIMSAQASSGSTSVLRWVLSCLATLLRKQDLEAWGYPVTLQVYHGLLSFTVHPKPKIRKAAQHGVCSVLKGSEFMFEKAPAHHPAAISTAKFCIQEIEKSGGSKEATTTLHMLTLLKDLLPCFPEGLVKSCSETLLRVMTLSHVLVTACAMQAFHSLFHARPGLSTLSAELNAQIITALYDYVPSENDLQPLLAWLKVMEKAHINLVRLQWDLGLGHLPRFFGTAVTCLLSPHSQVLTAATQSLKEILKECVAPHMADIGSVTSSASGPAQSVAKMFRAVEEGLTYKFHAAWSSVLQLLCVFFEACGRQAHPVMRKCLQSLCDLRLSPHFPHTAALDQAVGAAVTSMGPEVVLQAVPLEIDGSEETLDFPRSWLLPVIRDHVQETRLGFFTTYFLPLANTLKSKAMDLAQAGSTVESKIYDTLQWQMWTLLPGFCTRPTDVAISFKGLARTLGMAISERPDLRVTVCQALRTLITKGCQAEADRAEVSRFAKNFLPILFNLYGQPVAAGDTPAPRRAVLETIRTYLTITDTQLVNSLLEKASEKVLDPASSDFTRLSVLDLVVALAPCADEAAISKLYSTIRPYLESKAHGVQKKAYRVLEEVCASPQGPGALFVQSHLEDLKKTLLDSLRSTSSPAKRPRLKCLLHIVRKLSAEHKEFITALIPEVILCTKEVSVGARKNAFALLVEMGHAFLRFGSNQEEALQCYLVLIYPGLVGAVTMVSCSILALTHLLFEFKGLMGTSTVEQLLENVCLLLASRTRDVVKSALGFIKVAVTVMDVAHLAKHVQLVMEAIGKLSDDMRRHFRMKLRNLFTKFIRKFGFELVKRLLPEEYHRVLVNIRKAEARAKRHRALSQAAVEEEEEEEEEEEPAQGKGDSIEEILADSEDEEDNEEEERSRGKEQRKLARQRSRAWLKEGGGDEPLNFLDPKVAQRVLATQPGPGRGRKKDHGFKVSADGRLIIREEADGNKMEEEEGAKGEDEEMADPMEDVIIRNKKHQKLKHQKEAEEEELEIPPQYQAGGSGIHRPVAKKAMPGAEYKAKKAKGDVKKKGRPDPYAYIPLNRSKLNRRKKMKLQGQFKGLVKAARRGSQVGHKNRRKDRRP
UniProt Q92766: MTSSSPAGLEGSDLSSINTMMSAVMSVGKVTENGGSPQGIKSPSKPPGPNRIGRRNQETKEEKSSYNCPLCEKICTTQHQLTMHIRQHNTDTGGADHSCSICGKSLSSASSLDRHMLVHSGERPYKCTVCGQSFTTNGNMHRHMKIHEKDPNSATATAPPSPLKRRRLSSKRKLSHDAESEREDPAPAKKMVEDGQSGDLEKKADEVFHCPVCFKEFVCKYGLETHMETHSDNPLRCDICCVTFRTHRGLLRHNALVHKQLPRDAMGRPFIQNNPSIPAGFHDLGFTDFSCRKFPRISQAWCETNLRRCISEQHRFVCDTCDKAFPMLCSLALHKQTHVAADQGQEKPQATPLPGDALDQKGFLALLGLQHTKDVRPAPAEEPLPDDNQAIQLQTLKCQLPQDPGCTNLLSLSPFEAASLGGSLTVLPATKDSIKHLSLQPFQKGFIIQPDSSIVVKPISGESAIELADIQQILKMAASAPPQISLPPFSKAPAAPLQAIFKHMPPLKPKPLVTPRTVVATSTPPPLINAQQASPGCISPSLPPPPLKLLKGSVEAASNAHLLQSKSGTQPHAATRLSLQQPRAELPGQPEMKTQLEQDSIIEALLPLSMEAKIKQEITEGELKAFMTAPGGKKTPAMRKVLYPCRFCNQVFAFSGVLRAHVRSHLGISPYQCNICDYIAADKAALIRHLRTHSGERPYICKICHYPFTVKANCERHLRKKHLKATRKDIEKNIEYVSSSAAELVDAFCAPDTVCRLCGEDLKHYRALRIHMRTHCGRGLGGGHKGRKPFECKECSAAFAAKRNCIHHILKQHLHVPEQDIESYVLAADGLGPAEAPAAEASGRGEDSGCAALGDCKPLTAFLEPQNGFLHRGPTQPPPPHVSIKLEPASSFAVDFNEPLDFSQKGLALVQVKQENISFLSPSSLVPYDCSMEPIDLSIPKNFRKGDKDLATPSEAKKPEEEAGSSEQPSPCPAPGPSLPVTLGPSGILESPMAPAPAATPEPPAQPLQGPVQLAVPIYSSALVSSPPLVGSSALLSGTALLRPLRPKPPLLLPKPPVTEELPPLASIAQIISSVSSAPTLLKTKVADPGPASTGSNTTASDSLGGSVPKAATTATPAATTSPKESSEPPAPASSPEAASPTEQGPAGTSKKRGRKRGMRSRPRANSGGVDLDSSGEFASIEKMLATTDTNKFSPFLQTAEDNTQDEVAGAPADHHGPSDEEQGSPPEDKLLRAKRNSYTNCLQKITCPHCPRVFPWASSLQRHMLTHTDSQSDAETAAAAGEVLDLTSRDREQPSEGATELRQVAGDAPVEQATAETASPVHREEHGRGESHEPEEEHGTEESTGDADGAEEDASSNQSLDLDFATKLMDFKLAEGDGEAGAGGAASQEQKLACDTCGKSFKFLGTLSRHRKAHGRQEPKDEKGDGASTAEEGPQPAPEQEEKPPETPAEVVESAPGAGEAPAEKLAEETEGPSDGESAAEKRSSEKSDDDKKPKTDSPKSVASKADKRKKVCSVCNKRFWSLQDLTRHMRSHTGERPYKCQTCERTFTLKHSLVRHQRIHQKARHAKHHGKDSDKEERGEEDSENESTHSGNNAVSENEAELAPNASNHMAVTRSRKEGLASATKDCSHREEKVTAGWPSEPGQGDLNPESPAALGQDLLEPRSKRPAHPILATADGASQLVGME
UniProt Q15418, whole entry, looked up: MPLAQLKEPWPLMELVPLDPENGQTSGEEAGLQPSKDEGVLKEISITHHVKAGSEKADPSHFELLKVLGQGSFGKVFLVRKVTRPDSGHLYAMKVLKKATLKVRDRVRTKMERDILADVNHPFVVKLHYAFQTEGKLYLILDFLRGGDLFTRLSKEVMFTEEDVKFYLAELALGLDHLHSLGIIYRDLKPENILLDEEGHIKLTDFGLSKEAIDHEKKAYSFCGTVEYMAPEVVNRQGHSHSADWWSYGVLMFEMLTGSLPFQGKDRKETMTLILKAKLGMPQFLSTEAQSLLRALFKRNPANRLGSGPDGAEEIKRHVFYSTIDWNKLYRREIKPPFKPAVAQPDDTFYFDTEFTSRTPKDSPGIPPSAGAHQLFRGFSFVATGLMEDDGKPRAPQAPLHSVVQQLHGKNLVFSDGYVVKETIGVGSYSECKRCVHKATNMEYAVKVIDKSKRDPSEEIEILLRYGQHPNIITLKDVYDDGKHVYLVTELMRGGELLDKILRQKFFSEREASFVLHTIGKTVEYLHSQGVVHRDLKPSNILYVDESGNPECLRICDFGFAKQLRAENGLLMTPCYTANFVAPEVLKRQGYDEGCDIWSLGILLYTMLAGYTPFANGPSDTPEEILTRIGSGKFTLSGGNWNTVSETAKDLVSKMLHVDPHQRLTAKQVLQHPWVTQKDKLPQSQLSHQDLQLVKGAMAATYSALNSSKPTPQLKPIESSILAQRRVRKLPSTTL

Some of the results follow.

Compound in the experiment: Cc1cc(ccc1-c1ccccc1)C(=O)N1CCCN(CC1)C(=O)CCl [compound 10]
As to the kind of experiment: probe-labelled cysteine peptide fold change vs DMSO (competition) (log2 fold change); higher = less target engagement (more negative = stronger competition). The conditions noted are these: THP-1, incubation time: 4 h.
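Further: competitive profiling in live THP-1 cells: cysteine peptides tagged with an iodoacetamide desthiobiotin (IA-DTB) probe, intensity after compound treatment relative to DMSO-treated cells.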

In the case of “RSBN1L_Q6PCB5_818_EELCPGNLSLVDTR (UniProt Q6PCB5)”, the “probe-labelled cysteine peptide fold change” value is, setting by setting: (10 µM) -0.353; (50 µM) 0.0577.

In the case of “RSBN1_Q5VWQ0_207_GPDGDPSSCGTDLK (UniProt Q5VWQ0)”, the “probe-labelled cysteine peptide fold change” value is -0.142 (10 µM) and -0.182 (50 µM).

For “RRAGB_Q5VZM2_185_IFCLVHK (UniProt Q5VZM2)”, the “probe-labelled cysteine peptide fold change” value stood at 0.224 (10 µM) and 0.0979 (50 µM).

On to “RTCB_Q9Y3I0_193_EHCEEYGR (UniProt Q9Y3I0)”, for which the “probe-labelled cysteine peptide fold change” value by setting is: (10 µM) -0.126; (50 µM) 0.0353.

As to “RRP9_O43818_296+297_ECCVTAGGR (UniProt O43818)”, the “probe-labelled cysteine peptide fold change” value is, setting by setting: (10 µM) -0.103; (50 µM) -0.552.

In the case of “SAE1_Q9UBE0_295_YCFSEMAPVCAVVGGILAQEIVK (UniProt Q9UBE0)”, the “probe-labelled cysteine peptide fold change” value runs as follows: (10 µM) -0.252; (50 µM) 0.0287.

As to S100A4_P26447_3_ACPLEK (UniProt P26447), the “probe-labelled cysteine peptide fold change” value runs as follows: (10 µM) -0.0729; (50 µM) -0.24.

As to “RPS6KB1_P23443_254_ESIHDGTVTHTFCGTIEYMAPEILMR (UniProt P23443)”, the “probe-labelled cysteine peptide fold change” value (10 µM) is 0.0255 and the “probe-labelled cysteine peptide fold change” value (50 µM) is -0.0384.

For the target “RPS16_P62249_25_TATAVAHCK (UniProt P62249)”, the “probe-labelled cysteine peptide fold change” value (10 µM) is -0.127 and the “probe-labelled cysteine peptide fold change” value (50 µM) was -0.145.

Turning to “RPS12_P25398_108_KVVGCSCVVVK (UniProt P25398)”, the “probe-labelled cysteine peptide fold change” value is, setting by setting: (10 µM) -0.00346; (50 µM) -0.34.

As to “RPS6_P62753_83_GHSCYRPR (UniProt P62753)”, the “probe-labelled cysteine peptide fold change” value reads like this: (10 µM) -0.077; (50 µM) 0.137.

As for “RRP1_P56182_198_FIDPFCR (UniProt P56182)”, the “probe-labelled cysteine peptide fold change” value by setting is: (10 µM) -0.055; (50 µM) 0.166.

For “RPS17_P08708_35_VCEEIAIIPSK (UniProt P08708)”, the “probe-labelled cysteine peptide fold change” value (10 µM) was -0.306 and the “probe-labelled cysteine peptide fold change” value (50 µM) was determined as 0.0537.

On to “RSBN1_Q5VWQ0_621_DVICFHAEDFTDVVQR (UniProt Q5VWQ0)”, for which the “probe-labelled cysteine peptide fold change” value is, setting by setting: (10 µM) 0.295; (50 µM) 0.296.

“RXRA_P19793_369_TELGCLR (UniProt P19793)”: the “probe-labelled cysteine peptide fold change” value is, setting by setting: (10 µM) 0.0861; (50 µM) 0.139.

“RSL1D1_O76021_96_SDSEDICLFTK (UniProt O76021)”: the “probe-labelled cysteine peptide fold change” value runs as follows: (10 µM) 0.0269; (50 µM) 0.0589.

For the target “RRP12_Q5JTH9_673_GCQAEADRAEVSR (UniProt Q5JTH9)”, the “probe-labelled cysteine peptide fold change” value was -0.0456 (10 µM) and 0.0518 (50 µM).

On to “RRBP1_Q9P2E9_1128_LREAEETQSTLQAECDQYR (UniProt Q9P2E9)”, for which the “probe-labelled cysteine peptide fold change” value runs as follows: (10 µM) 0.395; (50 µM) 0.325.

As for “RREB1_Q92766_1514_KVCSVCNK (UniProt Q92766)”, the “probe-labelled cysteine peptide fold change” value (10 µM) is 0.00281 and the “probe-labelled cysteine peptide fold change” value (50 µM) is -0.451.

Turning to “RPS3A_P61247_96_NCLTNFHGMDLTR (UniProt P61247)”, the “probe-labelled cysteine peptide fold change” value (10 µM) is -0.125 and the “probe-labelled cysteine peptide fold change” value (50 µM) amounted to 0.0144.

Regarding “RXRA_P19793_171_DLTYTCR (UniProt P19793)”, the “probe-labelled cysteine peptide fold change” value reads like this: (10 µM) -0.079; (50 µM) -0.329.

In the case of “RUVBL1_Q9Y265_311_YIDQGIAELVPGVLFVDEVHMLDIECFTYLHR (UniProt Q9Y265)”, the “probe-labelled cysteine peptide fold change” value is -0.122 (10 µM) and -0.0523 (50 µM).

As to “RUBCNL_Q9H714_641_QCFQSSECPR (UniProt Q9H714)”, the “probe-labelled cysteine peptide fold change” value runs as follows: (10 µM) 0.416; (50 µM) 0.302.

Consider “RRP7A_Q9Y3A4_8_CAARDPEDR (UniProt Q9Y3A4)”, for which the “probe-labelled cysteine peptide fold change” value is -0.0213 (10 µM) and -0.237 (50 µM).

On to “RPS12_P25398_92_LGEWVGLCK (UniProt P25398)”, for which the “probe-labelled cysteine peptide fold change” value (10 µM) is 0.0151 and the “probe-labelled cysteine peptide fold change” value (50 µM) was -0.186.

In the case of “RPS27A_P62979_121_RECPSDECGAGVFMASHFDR (UniProt P62979)”, the “probe-labelled cysteine peptide fold change” value by setting is: (10 µM) 0.0999; (50 µM) -0.173.

For the target “RPS6KA1_Q15418_432_ETIGVGSYSECKR (UniProt Q15418)”, the “probe-labelled cysteine peptide fold change” value by setting is: (10 µM) -1.06; (50 µM) -2.91.

For the target “RTCB_Q9Y3I0_485_NVTDVVNTCHDAGISK (UniProt Q9Y3I0)”, the “probe-labelled cysteine peptide fold change” value (10 µM) was -0.261 and the “probe-labelled cysteine peptide fold change” value (50 µM) turned out to be 0.000605.

Turning to “RUFY1_Q96T51_675_NCGHIFCNTCSSNELALPSYPK (UniProt Q96T51)”, the “probe-labelled cysteine peptide fold change” value (10 µM) was 0.141 and the “probe-labelled cysteine peptide fold change” value (50 µM) was 0.0566.

As to “RSPRY1_Q96DX4_399_FLNHEGYGIGDDEYSCAYDGCR (UniProt Q96DX4)”, the “probe-labelled cysteine peptide fold change” value was -0.069 (10 µM) and -0.0582 (50 µM).

In the case of “RPS8_P62241_174+182_LLACIASRPGQCGR (UniProt P62241)”, the “probe-labelled cysteine peptide fold change” value is -0.43 (10 µM) and -0.444 (50 µM).

For “RTF1_Q92541_373_WCHMPFFAK (UniProt Q92541)”, the “probe-labelled cysteine peptide fold change” value runs as follows: (10 µM) -0.117; (50 µM) 0.00404.

With “RREB1_Q92766_291_DAMGRPFIQNNPSIPAGFHDLGFTDFSCR (UniProt Q92766)”, the “probe-labelled cysteine peptide fold change” value came to 0.2 (10 µM) and 0.311 (50 µM).
